The other results are listed elsewhere or left out. These are further read-outs of the screen, such as a control signal, another cell line or another target. No call is given for them. Most of these compounds were active or inconclusive in the main read-out, so they are no random draw. Potencies come from curve fits of mixed quality, noted in brackets.

The values that follow come from PubChem BioAssay AID2685 (National Center for Advancing Translational Sciences (NCATS), 2010).

This assay in a line: qHTS Assay for Lipid Storage Modulators in Drosophila S3 Cells.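 On cell number change: cells counted by Cell Tracker Red CMTPX staining in the red channel.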 Particulars: BODIPY lipid droplet fluorescence, 18-24 h; for cell number change: measured here: cell count max response, cells fed with added oleic acid. The essentials: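 Drosophila S3 cells loaded with oleic acid (400 uM, as added) and compounds at several concentrations; lipid droplets imaged by 488-nm laser-scanning cytometry, 500–530 nm intensity and object ratio to cell channel. Percent activity normalized to 20 uM Triacsin C.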

Setting [1] is: measured here: lipid fluorescence (Fed channel) AC50, cells fed with added oleic acid.
Setting [2] is: measured here: cell number channel AC50, cells fed with added oleic acid.

For the compound `O=S(=O)(NNc1cccc(Cl)n1)c1ccc(Cl)cc1`, the cell number change came out at 0.276%.

In the case of `Cc1cccc(NC(=O)COC(=O)CCCC2=NS(=O)(=O)c3ccccc3N2)c1`, the AC50 (usually the concentration at which the activity in the assay is half-maximal) under setting [1] is 20.6 µM [rising, single point]. Consider `O=C(Cn1cc2c(n1)CCCC2)Nc1ccccc1Cl`, for which the cell number change came out at 31.8%. The AC50 under setting [2] is 16.4 µM [rising, single point]. On to `Cc1nc2ccccc2nc1OCC(=O)Nc1ccc2ccccc2c1`, for which the AC50 reads like this: under setting [2], 1.64 µM [falling, partial curve]; under setting [1], 4.11 µM [rising, full curve]. `O=C(CSc1nc2ccccc2[nH]1)Nc1ccc(F)cc1`: the cell number change came to 3.13%. Further, the concentration at half-maximal activity (AC50) under setting [1] was 0.00517 µM [falling, full curve, poor fit]. With `Clc1cccc(NCc2ccccc2)n1`, the cell number change is -37.8%. On to `Clc1ccc(CNc2ccc(CNc3ncn[nH]3)cc2)c(Cl)c1`, for which the cell number change was found to be 5.61%. Also, the AC50 under setting [2] is 1.3 µM [rising, partial curve]. `CC(Sc1nncn1C)C(=O)Nc1ccccc1-c1ccccc1` (centres undefined): under setting [1], the half-maximal activity concentration (AC50) is 1.3 µM [rising, full curve]. In the case of `CCOc1ccc(OCC)c(NC(=O)CN2CCN(c3cccc(C)c3)CC2)c1`, the cell number change came out at 15.4%. Under setting [1], the concentration at half-maximal activity (AC50) is 3.26 µM [rising, partial curve, poor fit]. Turning to `Cc1ccc(NC2CCCN(C(=O)c3ccccn3)C2)cc1C` (centres undefined), the cell number change was determined as 18.4%. Also, the concentration at half-maximal activity (AC50) under setting [2] is 0.184 µM [rising, full curve, poor fit].

Take `S=C(NCc1ccccc1)NCc1cccc(CNC(=S)NCc2ccccc2)c1`: the cell number change was -32.5%. Besides, under setting [2], the concentration at half-maximal activity (AC50) was 29.1 µM [falling, single point]. In addition, under setting [1], the AC50 was 5.17 µM [falling, full curve]. As to `O=C(O)c1cc2nccc(-c3ccco3)n2n1`, the cell number change is 3.94%. For the same compound, the AC50 under setting [1] is 0.146 µM [falling, full curve]. Take `COC(C(=O)Nc1ccc(F)cc1F)c1ccccc1` (centres undefined): the cell number change came out at 53.2%. Further, the AC50 under setting [2] was 18.4 µM [rising, single point]. Regarding `O=C(NCC1CCCO1)c1ccccc1OCc1ccc(Cl)cc1` (centres undefined), the cell number change is -186%. Further, the AC50 under setting [2] is 23.1 µM [falling, partial curve].

In the case of `O=c1oc2ccccc2n1Cn1c(=O)oc2ccccc21`, the cell number change came to 9.27%. For the same compound, the AC50 under setting [1] is 0.651 µM [rising, full curve]. With `OCC1CCCCN1C(=S)NCc1ccco1` (centres undefined), under setting [1], the half-maximal activity concentration (AC50) was 6.51 µM [falling, single point]. With `CN(CC(=O)NC1CCCCCCC1)S(=O)(=O)c1cccc2cccnc12`, the cell number change is -38.9%. Also, the AC50 under setting [2] is 11.6 µM [falling, partial curve, poor fit]. Further, the concentration at half-maximal activity (AC50) under setting [1] is 1.46 µM [falling, partial curve].

In the case of `Cc1cccn2c(=O)c3cc(C(=O)NC4CCCC4)sc3nc12`, the cell number change was -0.88%. In addition, the AC50 under setting [1] is 1.46 µM [falling, full curve, poor fit].

Turning to `COc1ccc(C(=O)NCC(=O)OCC(=O)c2ccc(Cl)cc2)cc1OC`, the cell number change was -11.1%. For the same compound, under setting [2], the AC50 was 0.112 µM [falling, full curve, poor fit]. Moreover, the AC50 under setting [1] was 0.282 µM [falling, partial curve, poor fit]. As to `Cc1cc(=O)[nH]c(N/N=C/c2ccccn2)n1`, the cell number change was 0.55%. The same measure, in the same setting: under `CCc1ccc(NC(=O)CCc2ccc(CC)o2)cc1` stands -7.92%.

Consider `O=C(COC(=O)CNC(=O)c1ccc(Cl)cc1)Nc1ccc2c(c1)OCCO2`, for which the cell number change is -1.8%. Also, under setting [1], the AC50 was 29.1 µM [falling, single point]. For `COc1ccccc1OCC(=O)NCCCn1ccnc1`, under setting [2], the AC50 is 0.651 µM [falling, single point].

With `Cc1ccccc1-c1nc(CN2CCC(C(=O)NCCCN3CCCC3)CC2)c(C)o1`, the AC50 under setting [2] was 4.11 µM [falling, single point]. On to `Cc1ccc(C)c(-n2c(SCC(=O)N3CCCC3)nnc2-c2ccccn2)c1`, for which the cell number change was determined as 23.2%. In addition, the AC50 under setting [2] was 0.461 µM [rising, full curve, poor fit]. Further, under setting [1], the AC50 is 3.66 µM [rising, single point]. As for `C/C(=N\NC(=S)NCc1ccccc1)c1ccccc1`, the cell number change was found to be 35.2%. Besides, the AC50 under setting [2] is 1.3 µM [rising, partial curve]. The AC50 under setting [1] was 0.517 µM [rising, partial curve].

In the case of `COC(=O)c1cc(NS(=O)(=O)c2ccc(N3CCCCCC3)c([N+](=O)[O-])c2)cc(C(=O)OC)c1`, the cell number change was 148%. In addition, the concentration at half-maximal activity (AC50) under setting [1] was 0.58 µM [rising, single point].

Turning to `CCN(CC(N)=O)S(=O)(=O)c1ccc(F)cc1`, the cell number change is -34.2%. The AC50 under setting [2] was 35.5 µM [falling, single point]. On to `CCOc1ccc(OCCC(=O)OCC(=O)NC2CCCC2)cc1`, for which the cell number change was -11.5%. Besides, under setting [1], the AC50 was 5.8 µM [falling, single point]. `COc1cccc(NC(=O)CCCCCn2nnc3ccccc3c2=O)c1`: the cell number change is -0.709%. In addition, the AC50 under setting [1] was 6.51 µM [falling, single point]. As to `Cc1cc(C(=O)O)ccc1-n1c(C)cc(C=C2C(=O)c3ccccc3C2=O)c1C`, the cell number change was -10.4%. As to `O=C(NCCN1CCN(c2ccccc2Cl)CC1)Nc1ccccc1`, the cell number change was -8.21%. For the same compound, the half-maximal activity concentration (AC50) under setting [1] was 18.4 µM [rising, partial curve].

Take `C=CCn1c(SCC(=O)Nc2cc(C)c(Cl)cc2OC)nnc1-c1ccco1`: the cell number change was -4.55%. Moreover, the AC50 under setting [1] is 0.116 µM [rising, full curve, poor fit]. Turning to `CC1CC(C)CN(CCOCCSc2ccccc2)C1` (centres undefined), the cell number change was 168%. Besides, the AC50 under setting [2] is 9.2 µM [rising, partial curve]. Also, the AC50 under setting [1] is 11.6 µM [rising, partial curve].

Take `O=C(NCCc1cccnc1)c1cc(COc2ccc(F)cc2F)on1`: the cell number change was determined as 19.1%. Further, the AC50 under setting [1] is 4.61 µM [falling, single point]. For the compound `Cc1ccc(N(CC(=O)Nc2ccccc2-c2ccccc2)S(=O)(=O)c2ccccc2)c(C)c1`, the cell number change amounted to 36%. Besides, under setting [2], the AC50 was 29.1 µM [rising, single point]. Moreover, the AC50 under setting [1] is 23.1 µM [falling, single point]. In the case of `COc1ccc(CC(=O)NNS(=O)(=O)c2cccc([N+](=O)[O-])c2)cc1OC`, the cell number change was 3.04%. In addition, the half-maximal activity concentration (AC50) under setting [1] was 0.0082 µM [rising, full curve, poor fit]. As for `CCC(C)(C)NC(=O)C(c1ccc(C)cc1)N(CC1CCCO1)C(=O)c1csnn1` (centres undefined), the cell number change worked out at 16.2%. Consider `Cc1ccc2[nH]c(C)c(/C=C/c3cc[n+](C)cc3)c2c1`, for which the cell number change is -83.8%. Besides, the AC50 under setting [2] is 1.84 µM [falling, partial curve]. The AC50 under setting [1] is 0.82 µM [falling, full curve]. On to `Cc1ccc(/C=N/NC(=O)c2c[nH]c3ccccc23)o1`, for which the AC50 runs as follows: under setting [2], 3.26 µM [rising, partial curve]; under setting [1], 0.58 µM [rising, partial curve, poor fit]. As to `CC(=O)Nc1ccc(NC(=O)Cc2ccc(S(=O)(=O)N3CCCCC3)s2)cc1`, the cell number change worked out at 3.85%. Under setting [1], the AC50 was 23.1 µM [rising, single point]. Regarding `O=C(NC(=S)Nc1cccc([N+](=O)[O-])c1)C1CCCCC1`, the cell number change was -6.21%. The AC50 under setting [2] was 0.366 µM [rising, single point]. Under setting [1], the AC50 was 0.517 µM [rising, single point].

For the compound `Cc1cc(Nc2ccccc2)c2c([N+](=O)[O-])ccc(C)c2n1`, the cell number change was -13.1%. Further, under setting [1], the AC50 is 29.1 µM [falling, single point].

Regarding `CC(=O)Nc1ccc(C(=O)NN2C(=O)NC3(CCCCC3)C2=O)cc1`, the cell number change was -15.7%. Under setting [1], the AC50 was 0.58 µM [falling, full curve]. As to `COC(=O)c1c(C#N)c(N)nc2c1CCC2`, the AC50 under setting [1] is 6.51 µM [falling, single point]. With `O=C(N/N=C/c1cc(Cl)ccc1O)c1cccnc1`, the cell number change was -28.8%. Moreover, the AC50 under setting [1] was 3.66 µM [falling, partial curve]. Consider `Cc1ccc(C(=O)Nc2cc(C(C)C)c(O)c(C(C)C)c2)cc1`, for which the cell number change was found to be 19.2%. Under setting [1], the AC50 is 0.00411 µM [rising, full curve, poor fit]. Take `Cc1c(CC(=O)NCC(C)C)c(=O)oc2cc3c(cc12)CCC(C)(C)O3`: the cell number change is -72.5%. Under setting [2], the AC50 was 23.1 µM [falling, partial curve]. Also, the AC50 under setting [1] was 20.6 µM [falling, partial curve]. On to `CCOC(=O)C1=C(O)C(=O)N(c2ccccc2)C1c1cccc([N+](=O)[O-])c1` (centres undefined), for which the cell number change was -7.47%. With `COc1ccccc1Oc1ccc(-c2cnc3ccccc3n2)cc1[N+](=O)[O-]`, the cell number change stood at 124%. The AC50 under setting [2] is 29.1 µM [rising, single point]. Also, under setting [1], the concentration at half-maximal activity (AC50) is 29.1 µM [rising, partial curve].

Take `COc1ccccc1NS(=O)(=O)c1cccc(C(=O)N2CCN(C(=O)c3ccco3)CC2)c1`: the cell number change is -15.9%.

Take `CCCCNC(=O)C(=O)NCc1ccncc1`: the cell number change was -15.6%. Also, under setting [1], the AC50 is 0.116 µM [falling, full curve, poor fit]. Regarding `O=C(Cn1c(-c2ccco2)nc2ccccc21)N1CCCCC1`, the AC50 under setting [1] is 2.59 µM [falling, partial curve, poor fit].

As to `CC(C)(C)c1ccc(OCC(O)CS(=O)(=O)c2ccccn2)cc1` (centres undefined), the cell number change was -31.2%. Further, under setting [2], the AC50 is 2.31 µM [falling, single point]. For the same compound, under setting [1], the AC50 is 18.4 µM [falling, partial curve]. For the compound `O=CN1CCN(C(=S)NC(=O)c2ccc(Cl)cc2)CC1`, the cell number change was determined as 15.2%. The AC50 under setting [1] was 29.1 µM [rising, single point]. On to `COc1ccccc1OCC(=O)Nc1cc2c(cc1C(=O)O)OCCCO2`, for which the cell number change was determined as 14.1%. The AC50 under setting [1] is 23.1 µM [rising, single point]. On to `CCCN1CCC(=O)N(CCOc2ccccc2)CC1`, for which the cell number change was -2.69%. In addition, under setting [1], the AC50 was 29.1 µM [rising, single point]. Regarding `O=C(O)c1ccccc1S(=O)(=O)NCC(O)COc1ccc(Br)cc1` (centres undefined), the cell number change was -7.27%. Also, under setting [1], the AC50 was 0.00461 µM [falling, full curve, poor fit]. As to `CCCc1[nH]nc2c1C(/C(C)=C/c1ccccc1)C(C#N)=C(N)O2` (centres undefined), the cell number change is -0.593%. Under setting [1], the half-maximal activity concentration (AC50) was 0.116 µM [rising, full curve, poor fit]. For the compound `O=C(NCC1CCCO1)C1CCN(c2ccc(S(=O)(=O)N3CCCC3)cc2)CC1` (centres undefined), the cell number change was 42.1%. Also, the concentration at half-maximal activity (AC50) under setting [2] is 23.1 µM [rising, single point]. As for `COc1ccc(OC)c(CN2CCN(C(=O)[C@@H](NC(=O)c3cccc(C)c3)C(C)C)CC2)c1`, the cell number change worked out at 4.81%. For the same compound, the AC50 under setting [1] was 0.461 µM [rising, partial curve, poor fit].
